Reference: publication PMC11699780
These are yes or no findings as the source states them, for the method shown. Binding seen in cells or lysates may run through a third protein. Some entries that bind do so weakly or less than the wild type.

Amino acid sequences for entries named in this document (tags omitted). Residues count along the entry.
UniProt P00750, residues 36-562: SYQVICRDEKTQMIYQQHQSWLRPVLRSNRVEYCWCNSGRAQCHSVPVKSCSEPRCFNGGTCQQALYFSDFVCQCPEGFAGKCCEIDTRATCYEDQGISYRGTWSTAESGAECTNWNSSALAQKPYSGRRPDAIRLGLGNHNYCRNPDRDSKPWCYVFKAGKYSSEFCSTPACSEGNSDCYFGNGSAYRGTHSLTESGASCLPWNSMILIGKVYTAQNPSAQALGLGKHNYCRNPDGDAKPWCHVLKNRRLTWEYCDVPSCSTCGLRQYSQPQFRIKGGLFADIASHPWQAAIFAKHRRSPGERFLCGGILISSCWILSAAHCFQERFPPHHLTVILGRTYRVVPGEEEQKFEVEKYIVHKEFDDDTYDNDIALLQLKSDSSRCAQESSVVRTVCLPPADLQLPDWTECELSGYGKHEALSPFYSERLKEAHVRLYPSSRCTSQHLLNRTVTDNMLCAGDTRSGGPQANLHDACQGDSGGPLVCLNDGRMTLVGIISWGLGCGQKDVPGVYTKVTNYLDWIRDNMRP
UniProt P24821, residues 23-2201: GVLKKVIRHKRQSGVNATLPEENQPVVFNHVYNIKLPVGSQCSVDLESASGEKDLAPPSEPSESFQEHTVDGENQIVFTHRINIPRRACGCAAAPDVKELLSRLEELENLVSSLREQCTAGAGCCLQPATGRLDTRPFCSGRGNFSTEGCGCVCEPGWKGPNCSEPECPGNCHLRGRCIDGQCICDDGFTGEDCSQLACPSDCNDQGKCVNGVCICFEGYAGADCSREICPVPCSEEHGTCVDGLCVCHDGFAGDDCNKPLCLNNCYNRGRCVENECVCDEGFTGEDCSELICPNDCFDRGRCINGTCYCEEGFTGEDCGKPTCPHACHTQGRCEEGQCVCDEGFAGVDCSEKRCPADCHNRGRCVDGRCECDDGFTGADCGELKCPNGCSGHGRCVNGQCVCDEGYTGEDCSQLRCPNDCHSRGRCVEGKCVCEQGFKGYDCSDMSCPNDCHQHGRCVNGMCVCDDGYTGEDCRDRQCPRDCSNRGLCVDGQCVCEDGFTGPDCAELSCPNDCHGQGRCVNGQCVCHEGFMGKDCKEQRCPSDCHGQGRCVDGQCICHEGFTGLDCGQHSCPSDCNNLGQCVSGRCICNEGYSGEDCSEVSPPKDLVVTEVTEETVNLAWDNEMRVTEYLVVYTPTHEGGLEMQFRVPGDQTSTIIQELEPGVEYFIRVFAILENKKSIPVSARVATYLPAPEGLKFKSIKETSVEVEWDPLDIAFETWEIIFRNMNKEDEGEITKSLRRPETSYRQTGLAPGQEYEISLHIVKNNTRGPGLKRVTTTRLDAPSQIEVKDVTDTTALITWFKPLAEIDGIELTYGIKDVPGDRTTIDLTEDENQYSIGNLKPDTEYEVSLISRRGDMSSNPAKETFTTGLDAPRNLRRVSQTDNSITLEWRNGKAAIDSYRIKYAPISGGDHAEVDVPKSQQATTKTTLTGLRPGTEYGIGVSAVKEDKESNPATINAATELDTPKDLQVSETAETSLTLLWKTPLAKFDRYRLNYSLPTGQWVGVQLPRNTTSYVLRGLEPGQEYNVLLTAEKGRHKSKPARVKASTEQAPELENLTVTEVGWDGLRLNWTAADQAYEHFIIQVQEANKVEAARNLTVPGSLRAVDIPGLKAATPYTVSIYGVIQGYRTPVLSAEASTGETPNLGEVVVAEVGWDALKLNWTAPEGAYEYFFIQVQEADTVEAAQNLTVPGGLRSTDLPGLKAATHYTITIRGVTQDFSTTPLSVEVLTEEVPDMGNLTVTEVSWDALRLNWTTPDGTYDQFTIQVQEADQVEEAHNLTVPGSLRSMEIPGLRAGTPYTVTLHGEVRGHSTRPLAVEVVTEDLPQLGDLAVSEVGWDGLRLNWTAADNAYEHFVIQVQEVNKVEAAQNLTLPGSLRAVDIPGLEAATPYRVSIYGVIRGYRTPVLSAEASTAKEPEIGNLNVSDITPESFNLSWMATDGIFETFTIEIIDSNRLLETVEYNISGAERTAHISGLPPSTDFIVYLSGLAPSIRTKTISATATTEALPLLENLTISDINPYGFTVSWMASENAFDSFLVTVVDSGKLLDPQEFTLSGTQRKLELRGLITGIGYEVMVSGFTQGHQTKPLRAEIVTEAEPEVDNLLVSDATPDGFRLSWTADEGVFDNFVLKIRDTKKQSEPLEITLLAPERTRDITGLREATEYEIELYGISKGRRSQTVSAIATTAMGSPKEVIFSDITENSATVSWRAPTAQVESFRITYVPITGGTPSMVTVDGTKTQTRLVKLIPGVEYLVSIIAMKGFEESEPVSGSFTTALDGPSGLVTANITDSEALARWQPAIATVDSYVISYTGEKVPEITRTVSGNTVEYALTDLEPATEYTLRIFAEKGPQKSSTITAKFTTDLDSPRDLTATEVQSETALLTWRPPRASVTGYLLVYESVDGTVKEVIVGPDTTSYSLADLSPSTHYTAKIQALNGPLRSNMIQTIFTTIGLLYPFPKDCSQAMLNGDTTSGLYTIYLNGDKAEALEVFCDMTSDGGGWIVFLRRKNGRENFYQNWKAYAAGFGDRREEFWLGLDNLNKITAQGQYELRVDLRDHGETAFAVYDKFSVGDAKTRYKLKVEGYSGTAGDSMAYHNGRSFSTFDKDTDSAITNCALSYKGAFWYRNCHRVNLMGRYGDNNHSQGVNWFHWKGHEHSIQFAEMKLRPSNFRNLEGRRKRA

Target: PLAT (t-PA) (human (endogenous in PC9GR)) (UniProt P00750)
Assay: co-IP; cells lysed in IP lysis buffer 1 h at 4 °C; cleared supernatant rotated with antibodies and protein A beads 4 h at 4 °C; washed four times; antibodies anti-PLAT, anti-ITGB3, anti-TNC, anti-IgG; which protein was precipitated is not told

binding: binds
Substance: Tenascin-C (TNC) (from UniProt P24821 23-2201)
